Data published in article PMC4259311.
The exact form of at least one protein or probe is not confirmed. Negatives hold for the conditions tested.

Test system: FEMU2 3C2H2 zinc finger domain (GST-3C2H2) (Chlamydomonas reinhardtii)
Experiment: EMSA
Conditions: EMSA kit E33075 (Invitrogen) DNA-binding buffer (composition, salt and pH not stated), 22 C, 20 min, 8% native PAGE, SYBR Green EMSA stain, recombinant protein, protein details: GST (pGEX-6P-1), label: none (SYBR Green stain)

Sequence	binding result (10-40 ug protein)	binding result
TTGGGTTTGGGTTTGGGTTTGGGT (double strand) [WT (TTGGGT tetramer)]	binds	–
CCGGGTCCGGGTCCGGGTCCGGGT (double strand) [Mu1 (CCGGGT tetramer)]	–	binds
TTGGACTTGGACTTGGACTTGGAC (double strand) [Mu3 (TTGGAC tetramer)]	–	binds
TTAAGTTTAAGTTTAAGTTTAAGT (double strand) [Mu2 (TTAAGT tetramer)]	–	no binding
TTGAATTTGAATTTGAATTTGAAT (double strand) [Mu4 (TTGAAT tetramer)]	–	no binding
